Laboratory results published in PMC7226469, “Polyketide-Derived Secondary Metabolites from a Dothideomycetes Fungus, Pseudopalawania siamensis gen. et sp. nov., (Muyocopronales) with Antimicrobial and Cytotoxic Activities” (Biomolecules, 2020).
Converted amounts (≈) assume the structure as drawn.

Tested on: Pseudomonas aeruginosa
Assay: MIC, 96-well serial dilution; further: key: (-): no inhibition
Type: cell-based
Details: strain PA14, starting concentration 66.7 µg/mL, control volume in brackets, read-out: Minimum Inhibitory Concentration (MIC)
Procedure: Gentamicin, kanamycin, nystatin, and oxytetracycline were used as positive controls against tested organisms. […] Epothilone B and methanol were used as positive and negative control, respectively.
The polyketides 1–5 were evaluated for their antimicrobial activity against selected microorganisms (Table 3) and cytotoxicity against two mammalian cell lines, HeLa cells KB3.1 and mouse fibroblast cell line L929 (Table 4). The starting concentration for antimicrobial assay and cytotoxicity assay were 66.7 and 300 µg/mL, respectively and the substances were dissolved in MeOH (1 mg/mL). […] Results were expressed as MIC or minimum inhibitory concentration (μg/mL) and IC50 or half maximal inhibitory concentration (μM) (Table 3 and Table 4).

MIC: 0.8 µg/mL (≈ 1.68 µM)
SMILES: CNC(C)C1CCC(N)C(OC2C(N)CC(N)C(OC3OCC(C)(O)C(NC)C3O)C2O)O1 (stereo not shown) [G, Gentamicin, reference compound]
